Source: US7517840B2, “Optimized perfumery for rinse-off products” (Givaudan Fragrances Corporation, priority 2005, dated 2009)

Experiment: GC-MS headspace release profile of perfume in shampoo, 1/100 dilution in water
Assay type: physicochemical
Settings: Tropical Fruit Perfume
Method: Experimental Procedure: Individual odorant to be tested was added to 20 g of shampoo formulation (see formula below in Table 4) at 0.1%.
A 10 gram sample of formulation and fragrance was added to an empty 1000 ml pyrex beaker. This beaker was then filled with 1000 ml of 120 F tap water. Beaker with diluted shampoo sample was then immediately placed into a semi-enclosed plexiglass chamber.
Headspace Sampling: Once beaker was placed into chamber a Carboxan SPME field fiber was held at the top-side opening of the chamber over the beaker containing the sample. […] […] Top of plexiglass chamber was held open for entire 5 minutes of headspace sampling.

## CCCCCCCC1CCC(=O)O1 (centres unmarked) [GAMMA UNDECALACTONE]
40 seconds
  GC Abundance: 4000
50 seconds
  GC Abundance: 7000
